For one assay, the target named is T1, FLAG-IRF7-K375R (UniProt Q92985).
T1 sequence: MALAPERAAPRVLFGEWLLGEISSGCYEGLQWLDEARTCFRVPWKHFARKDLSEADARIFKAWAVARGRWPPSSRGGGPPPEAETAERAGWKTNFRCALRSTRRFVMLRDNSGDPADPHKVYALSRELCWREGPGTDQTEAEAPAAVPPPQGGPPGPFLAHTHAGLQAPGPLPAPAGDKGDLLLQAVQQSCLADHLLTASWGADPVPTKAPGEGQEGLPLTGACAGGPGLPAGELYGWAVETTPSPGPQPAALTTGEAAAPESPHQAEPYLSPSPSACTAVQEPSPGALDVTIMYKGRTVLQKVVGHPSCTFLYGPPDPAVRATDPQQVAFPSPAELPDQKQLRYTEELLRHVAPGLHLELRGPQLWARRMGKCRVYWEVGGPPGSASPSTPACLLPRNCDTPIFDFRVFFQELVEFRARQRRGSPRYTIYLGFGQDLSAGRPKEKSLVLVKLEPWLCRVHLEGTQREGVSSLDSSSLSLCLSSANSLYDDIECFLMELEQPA
Description: co-IP; whole-cell extracts of transfected cells (HEK293T) 24 h after transfection, NP-40 lysis buffer; antibody with Protein A/G beads 4 h at 4°C; washed with PBS with 0.1% NP40; immunoblot.

By UniProt entry, the sequences of proteins in these tests, tags left out.
UniProt Q13547: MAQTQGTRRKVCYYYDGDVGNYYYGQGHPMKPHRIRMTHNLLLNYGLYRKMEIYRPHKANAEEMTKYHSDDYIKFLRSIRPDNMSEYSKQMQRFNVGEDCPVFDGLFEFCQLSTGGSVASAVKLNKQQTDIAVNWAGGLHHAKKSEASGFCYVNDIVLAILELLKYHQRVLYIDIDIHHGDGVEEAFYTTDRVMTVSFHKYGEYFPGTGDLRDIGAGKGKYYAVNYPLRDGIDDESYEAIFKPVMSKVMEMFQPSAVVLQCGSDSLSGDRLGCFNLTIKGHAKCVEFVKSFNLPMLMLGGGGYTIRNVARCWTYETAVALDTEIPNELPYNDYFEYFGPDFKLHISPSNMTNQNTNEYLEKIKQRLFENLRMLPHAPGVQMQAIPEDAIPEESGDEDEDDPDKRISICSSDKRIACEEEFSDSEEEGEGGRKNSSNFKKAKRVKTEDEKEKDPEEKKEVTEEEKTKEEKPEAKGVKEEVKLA
UniProt Q14653: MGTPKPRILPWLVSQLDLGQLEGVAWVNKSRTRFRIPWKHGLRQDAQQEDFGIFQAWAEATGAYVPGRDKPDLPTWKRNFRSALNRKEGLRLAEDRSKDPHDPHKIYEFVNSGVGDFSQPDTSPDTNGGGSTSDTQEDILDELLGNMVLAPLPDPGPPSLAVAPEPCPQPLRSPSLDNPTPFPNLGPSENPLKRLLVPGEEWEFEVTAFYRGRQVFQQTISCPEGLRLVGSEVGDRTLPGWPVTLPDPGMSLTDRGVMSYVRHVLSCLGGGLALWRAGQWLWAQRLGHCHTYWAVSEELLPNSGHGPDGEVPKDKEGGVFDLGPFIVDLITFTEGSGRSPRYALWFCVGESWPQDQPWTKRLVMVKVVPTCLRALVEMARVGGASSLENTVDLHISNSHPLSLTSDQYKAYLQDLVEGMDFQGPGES
UniProt Q13568: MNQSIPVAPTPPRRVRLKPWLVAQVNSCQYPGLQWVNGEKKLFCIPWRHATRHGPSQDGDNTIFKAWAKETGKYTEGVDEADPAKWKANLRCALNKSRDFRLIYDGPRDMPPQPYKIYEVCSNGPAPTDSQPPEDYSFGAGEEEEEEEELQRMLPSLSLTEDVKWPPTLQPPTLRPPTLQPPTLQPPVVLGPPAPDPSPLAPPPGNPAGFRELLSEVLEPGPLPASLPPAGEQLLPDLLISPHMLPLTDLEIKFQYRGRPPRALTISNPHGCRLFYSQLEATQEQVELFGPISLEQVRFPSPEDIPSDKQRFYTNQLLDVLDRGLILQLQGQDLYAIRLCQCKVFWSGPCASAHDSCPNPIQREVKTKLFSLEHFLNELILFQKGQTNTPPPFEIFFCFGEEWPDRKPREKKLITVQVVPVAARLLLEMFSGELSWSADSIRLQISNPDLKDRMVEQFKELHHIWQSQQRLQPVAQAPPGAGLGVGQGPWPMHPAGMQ

The target in assay [1] is T2, NEURL3 (construct of the experiments of Figure S1; tag not told) (human) (UniProt Q96EH8).
T2 sequence: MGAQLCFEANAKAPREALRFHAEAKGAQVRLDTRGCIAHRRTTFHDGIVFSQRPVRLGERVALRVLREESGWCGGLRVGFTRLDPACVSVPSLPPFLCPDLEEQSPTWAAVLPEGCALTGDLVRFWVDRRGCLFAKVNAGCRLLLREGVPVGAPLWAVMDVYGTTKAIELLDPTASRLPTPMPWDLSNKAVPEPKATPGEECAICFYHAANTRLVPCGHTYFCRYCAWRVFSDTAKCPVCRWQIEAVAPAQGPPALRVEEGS
The assay is described as above.

These are yes or no findings as the source states them, for the method shown. Binding seen in cells or lysates may run through a third protein. Some binding calls cover weakened binding; strength is not graded here. Where a sequence is shown, tags or fusion partners need not be part of it.

With HA-HDAC1 (from UniProt Q13547 1-482), in the assay with FLAG-IRF7-K375R, the binding entry was “binds”.
With “IRF3 (transfected, IRF family panel) (from UniProt Q14653 1-427)”, the binding entry in assay [1] was “binds”.
On the same count and under the same terms, next, IRF5 (from UniProt Q13568 1-498): “binds weakly”.
